In publication PMC12040169 (PLOS Biology, 2025):
This is one part of the list.

Test system: T1, CTL2-GFP (C. trachomatis L2/434/Bu, GFP-expressing)
T1 construct: L2/434/Bu, GFP-expressing
Parameters: species or system HeLa; Intracellular C. trachomatis growth in HeLa cells, bulk GFP fluorescence relative to DMSO
Settings: bulk GFP, single well; 28.5 h, 10 µM; inhibitor

| Compound | % of control remaining [%] |
| --- | --- |
| C/C(Nc1ccc(S(=O)(=O)Nc2nccc(C)n2)cc1)=C1\C(=O)N(c2nc3ccccc3s2)N=C1C(F)(F)F [CBK263002] | 18.8224 |
| CCCC(=O)N[C@@H](C)Cn1c(C(F)(F)F)cc2cccnc21 [CBK283232] | 124.111 |
| CN(C)c1ccc(-c2nnnn2[C@H]2CO[C@H]3[C@@H]2OC[C@H]3O)cc1 [CBK289481] | 117.806 |
| OC1(CCCN2CCOCC2)C2CCCC1CN(Cc1ccccc1)C2 (stereo not shown) [CBK025076C] | 129.583 |
| FC(F)(F)c1cccc(OCCN2CCNCC2)n1 [CBK113291] | 114.468 |
| COc1ccc(CCNC(=O)NS(=O)(=O)c2ccc(C)cc2)cc1OC [CBK300510] | 145.394 |
| CC(=O)N1CCC[C@@H]1C(=O)N1CC[C@@H]2NC(=O)[C@H](Cc3ccccc3)NC(=O)C3(C/C=C/C[C@@H]2C1)CCOCC3 [CBK292195] | 135.085 |
| COc1cccc(OCCCCCc2c(C)n[nH]c2C)c1 [CBK261805] | 100.543 |
| COc1ccccc1NC(=O)CCSc1nc(C)cc(C)n1 [CBK266371] | 118.946 |
| O=[N+]([O-])c1ccc(CN2CCN(c3nccnc3Oc3ccc(F)cc3)CC2)cc1 [CBK083015T] | 116.359 |
| Cc1ccccc1Nc1nc(N)nc(CN2CCOC3CCCC32)n1 (stereo not shown) [CBK305181] | 68.1927 |
| COc1ccc(S(=O)(=O)NCCN2CCOCC2)c(Cl)c1Cl [CBK269999] | 132.548 |
| CC(c1ccncc1)N1Cc2cccc(C(=O)O)c2C1=O (stereo not shown) [CBK291137] | 120.309 |
| Cn1c(=O)c2c(O)cc(=O)n(Cc3ccccc3)c2n(C)c1=O [CBK291245] | 155.128 |
| CC(=O)N1CCn2nc(C(=O)N(CCO)Cc3ccccc3)cc2C1 [CBK306769] | 109.836 |
| COC(=O)Cn1c(=O)sc2cccc(Cl)c21 [CBK026076] | 101.761 |
| O=C(NC1Cc2ccccc2C1)c1ccc2ncccc2c1 [CBK200354] | 158.816 |
| O=c1[nH]c2ncc(-c3ccco3)nc2n1Cc1ccc(F)c(Cl)c1 [CBK064393] | 78.4198 |
| CC(=O)Nc1ccc(-c2ccc(=O)n3c2[C@@H]2C[C@@H](CN(C4CCOCC4)C2)C3)cc1 [CBK289201] | 125.945 |
| O=c1[nH]c(=O)c2c3c(sc2[nH]1)CCCC3 [CBK027724] | 96.0277 |
| Cc1ccc(S(=O)(=O)CC(=O)N2CCCC3(CCN(Cc4ccccc4)C3)C2)cc1 (stereo not shown) [CBK137098T] | 231.323 |
| CCCCN1C(=O)N(c2nnc(C(C)(C)C)s2)C(=O)C1c1ccc(Cl)c(Cl)c1 (stereo not shown) [CBK085921] | 114.058 |
| CCc1nc2ccc(C(=O)N(C)CCN(C)C)cn2c1N(CC)CCOC [CBK146018] | 110.312 |
| COc1cc(NC(=S)NCCN2CCOCC2)c(OC)cc1Cl [CBK265888] | 114.842 |
| N#Cc1ccc(C(=O)NCc2ccc(OC3CCNCC3)cc2)cc1 [CBK036358T] | 117.758 |
| O=C(NCc1csc(-c2ccccc2)n1)C(F)(F)F [CBK092340] | 102.062 |
| Cc1cccc(=O)n1CCCn1cc(-c2ncc[nH]2)nn1 [CBK307401] | 116.598 |

| Compound | % of control remaining [%] |
| --- | --- |
| Cc1cc(Nc2ccc(I)cc2)n2ncnc2n1 [CBK027364] | 111.731 |
| CC(C)[C@H](CO)Nc1nccnc1-c1ccncc1 [CBK089030] | 103.688 |
| COc1cc(CCN2CCN(C(C)C)CC2)cc(OC)c1OC [CBK028881C] | 112.358 |
| Cc1nc2cc(OCc3nc(C(=O)NC4CCNC4=O)co3)ccc2s1 (stereo not shown) [CBK307298] | 112.984 |
| CN1CCN(C(=O)c2ccc(-c3cccc(C(=O)NCCO)c3)nc2N(C)C)CC1 [CBK076581] | 100 |
| COc1ccccc1C/C(N)=N/OC(=O)COc1cccc2ccccc12 [CBK263012] | 120.138 |
| O=C1COc2ccccc2CCCC[C@@H]2CN(C(=O)CN3C(=O)CNC3=O)CC[C@H]2N1 [CBK292047] | 115.814 |
| c1coc(C2N3CCC4(CC3)c3[nH]c5ccccc5c3CCN24)c1 (stereo not shown) [CBK282862] | 98.5635 |
| COc1ccc(-n2c(SCCc3ccccc3)nnc2-c2ccncc2)cc1 [CBK265618] | 100 |
| CCOC(=O)C1CCN(Cc2cccs2)CC1 [CBK026999] | 154.958 |
| CCOC(=O)c1ccc(NS(=O)(=O)c2cc(Cl)ccc2Cl)cc1 [CBK077746] | 102.43 |
| O=C(O)COc1ccccc1/C=N\N1CCN(Cc2ccccc2Cl)CC1 [CBK020891] | 114.682 |
| CC(C)c1ccc(CNC(=O)c2ccc3[nH]ccc3c2)cc1 [CBK161754] | 178.286 |
| CC1CCCN(CC(O)COCc2ccc3c(c2)OCO3)C1 (stereo not shown) [CBK262830C] | 107.391 |
| CC(C)(C)N(Cc1ccccc1)C(=O)Cn1nc(C(=O)O)c2ccccc2c1=O [CBK297498] | 90.7286 |
| CN1CC(C(=O)N2CCCC(c3cc4cccnc4[nH]3)C2)CC1=O (stereo not shown) [CBK284958] | 131.457 |
| CN1CCN(c2cc(N)nc(N)n2)CC1 [CBK266102] | 167.362 |
| CCc1nc2ccc(C(=O)N3CCCCC3)cn2c1N(C)CCC(C)C [CBK146065] | 111.377 |
| Cc1cc2cc3c(nc2cc1C)OCCNC3 [CBK281939] | 143.761 |
| O=C(CSCc1c(Cl)cccc1Cl)Nc1ccc(-c2nnc(-c3ccccc3)o2)cc1 [CBK267817] | 118.619 |
| O=S(=O)(Nc1nnc(Cc2ccc(Cl)cc2)s1)c1ccc(Cl)cc1 [CBK200048] | 117.526 |
| O=C1N(c2cccc(Cl)c2)Cc2nc(=O)[nH]n21 [CBK288430] | 121.137 |
| Oc1ccc(-c2n[nH]c(=S)n2-c2ccccc2)cc1 [CBK014887] | 113.205 |
| c1ccc(Nc2[nH]nnc2-c2ccccc2)cc1 [CBK261015] | 81.2862 |
| CCC(NC(=O)c1ccc(C#CC2(O)CCCCC2)cc1)C(=O)O (stereo not shown) [CBK287160] | 113.837 |
| CC1=C[C@@H](CN2CCC(O)CC2)[C@H](C(C)C)C[C@H]1Cc1nnc(-c2ccccc2)o1 [CBK289220] | 121.378 |
| N#C/C(=C\c1ccc(OCC(=O)c2ccc(F)cc2)cc1)c1nc(-c2cc3ccccc3oc2=O)cs1 [CBK266769] | 130.597 |

Molecules shown so far containing a cyano group:

| Compound | % of control remaining [%] |
| --- | --- |
| N#Cc1ccc(C(=O)NCc2ccc(OC3CCNCC3)cc2)cc1 [CBK036358T] | 117.758 |
| N#C/C(=C\c1ccc(OCC(=O)c2ccc(F)cc2)cc1)c1nc(-c2cc3ccccc3oc2=O)cs1 [CBK266769] | 130.597 |

Next entries follow:

| Compound | % of control remaining [%] |
| --- | --- |
| Cc1nn(C)cc1C(=O)N1CCC(c2cc3c(C)cccc3cn2)CC1 [CBK282231] | 129.481 |
| COc1ccc(C)cc1NC(=O)C1CC(=O)Nc2ncnn21 (stereo not shown) [CBK270274] | 104.805 |
| Cc1cc(NC(=O)N2CCN(CCNC(=O)C3CCCC3)CC2)no1 [CBK305064] | 131.059 |
| COc1ccc(C(=O)N2CCN(Cc3ccc(SC)cc3)CC2)cc1 [CBK058613] | 46.0597 |
| CCOC(=O)CCNC(C)C1COc2ccccc2O1 (stereo not shown) [CBK074284G] | 110.472 |
| COc1ccc(-c2ncc(OCC3CCCN3C)nc2N)c(OC)c1 (stereo not shown) [CBK145091] | 97.279 |
| Cc1cc(C)cc(N(CC(=O)Nc2ccc(C)c(Cl)c2)S(=O)(=O)c2ccccc2)c1 [CBK264109] | 88.2597 |
| Cc1ccccc1-n1ccn(S(=O)(=O)c2ccccc2)c1=O [CBK106567] | 164.445 |
| CC(=O)NCCSc1nccnc1NC(C)C [CBK105289] | 115.411 |
| NS(=O)(=O)c1ccc(NCc2cc(Cl)ccc2OCc2ccc(F)cc2)cc1 [CBK268196] | 94.7285 |
| COc1cccc(OCCOc2nsnc2N2CCNCC2)c1 [CBK200007] | 142.314 |
| Fc1ccc(CNc2cncc(-c3cc4ccccc4o3)n2)cc1 [CBK066005] | 111.19 |
| Cn1c(-c2ccccc2)cnc1NC(=O)C1CCN(S(=O)(=O)c2ccc(F)cc2)C1 (stereo not shown) [CBK285709] | 119.489 |
| CCO[C@H]1CN(C)C[C@@H]1NC(=O)c1cccc2c1NCCC2 [CBK307269] | 129.326 |
| COc1ccc(-c2cc(C(F)(F)F)nc(SCC(=O)Nc3cccnc3)n2)cc1OC [CBK266148] | 114.715 |
| Cc1cccc(OCC(=O)Nc2ncccc2OCCCC#N)c1 [CBK305918] | 130 |
| O=C(O)c1ccc(C(=O)O)c2c(-c3ccc(C(=O)O)c4c(C(=O)O)ccc(C(=O)O)c34)ccc(C(=O)O)c12 [CBK261267] | 100 |
| Cc1nn(-c2ccc(F)cc2)c2[nH]c(=O)c(CNC(C)C)cc12 [CBK283119] | 112.067 |
| CC(=O)Nc1cccc(-n2nnnc2SC2CCCCC2=O)c1 (stereo not shown) [CBK304600] | 132.14 |
| CN(C(=O)c1ccco1)c1nc2c(s1)CCc1c-2cnn1C [CBK281928] | 101.603 |
| COc1ccc2c(c1)sc1ncc(C#N)n12 [CBK016716] | 89.4923 |
| COC(=O)CCc1ccc(S(=O)(=O)N2CCCN(Cc3ccc(Cl)c(C(F)(F)F)c3)CC2)cc1 [CBK062995] | 120.782 |
| COc1ccc(Br)cc1C(=O)NC(=S)Nc1cc(Cl)c(O)c(Cl)c1 [CBK265979] | 110.937 |
| CC(C)C(NS(=O)(=O)c1ccc(Oc2ccccc2Cl)cc1)C(=O)O (stereo not shown) [CBK267195] | 150.137 |
| COc1cc(/C=C2/SC(=S)N(CC(=O)O)C2=O)cc(Br)c1OCc1ccccn1 [CBK265598] | 100.537 |

An excerpt taken from the entries so far:

| Compound | % of control remaining [%] |
| --- | --- |
| Cc1cc(NC(=O)N2CCN(CCNC(=O)C3CCCC3)CC2)no1 [CBK305064] | 131.059 |
| COc1ccc(C(=O)N2CCN(Cc3ccc(SC)cc3)CC2)cc1 [CBK058613] | 46.0597 |
